Results as given in PubChem BioAssay AID493014 (National Center for Advancing Translational Sciences (NCATS), 2011).
This is one part of the list. Shown are side measurements of this screen, not its main read-out; they come without a call. Most of these compounds were active or inconclusive in the main read-out, so they are no random draw. Words in brackets tell the shape of the fitted curve; partial curves, single points and poor fits give uncertain potencies.

Test: qHTS Assay to Find Inhibitors of Chronic Active B-Cell Receptor Signaling
Conditions: ABC-DLBCL IkBa-CBG/CBR reporter, luminescence ratio (green luciferase fused to IkBa over red control in TMD8 lymphoma cells), 4 h
How it was run: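 TMD8 human ABC-DLBCL cells with doxycycline-inducible IκBα–green luciferase fusion and unfused red luciferase, in 0.5% FBS medium; compounds up to 46 uM, 4 h at 37C. Green/red luminescence ratio, filter-overlap corrected, fitted to concentration-response curves.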

[1] = measured here: CBR red luminescence, cell number
[2] = measured here: IkBa-CBG green luminescence

C[C@H](CO)N1C[C@H](C)[C@@H](CN(C)C(=O)Nc2ccc(C(F)(F)F)cc2)Oc2c(NC(=O)Nc3ccccc3)cccc2C1=O
AC50 [1]: 29.1 µM [falling, single point]

CC(C)(C)Sc1ccc([N+](=O)[O-])cc1C(=O)Nc1ccncc1
AC50 [1]: 5.01 µM [rising, partial curve, poor fit]

Cc1ccc2[nH]c3c(=O)n(CCCN4CCN(C)CC4)cnc3c2c1
AC50 [1]: 6.51 µM [falling, single point]

S=C(NCC1CC1)N/N=C/c1ccccc1Cl
AC50 [1]: 35.5 µM [rising, single point]

Cc1c(C(=O)Oc2cc(N)n(S(C)(=O)=O)n2)cccc1[N+](=O)[O-]
AC50 [1]: 35.5 µM [falling, single point]

COc1ccc(/C(N)=N/OC(=O)Cc2ccccc2OC)cc1
AC50 [1]: 3.55 µM [falling, partial curve, poor fit]

Cc1[nH]nc2c1C(c1cn[nH]c1-c1ccc(F)cc1)C(C#N)=C(N)O2 (configuration not stated)
AC50 [1]: 12.6 µM [falling, partial curve, poor fit]

Oc1ccc(N=Nc2ccccc2C(F)(F)F)c2cccnc12
AC50 [1]: 11.2 µM [rising, partial curve]

Cn1c2ccccc2c(=O)c2ccc(C#CC3(N)CCCCC3)cc21
AC50 [1]: 25.1 µM [falling, single point]

C=CCN(CC(=O)NCc1ccc(OC)cc1)C(=O)c1csnn1
AC50 [1]: 10.3 µM [rising, partial curve, poor fit]

CC(=O)Nc1ccc(NC(=O)c2cc(-c3cc(C)cc(C)c3O)n[nH]2)cc1
AC50 [1]: 3.98 µM [falling, partial curve, poor fit]

CCN(CC)c1ccc(S(=O)(=O)N2CCCCC2)cc1NC(=O)C1CSC2(C)CCC(=O)N12 (configuration not stated)
AC50 [1]: 7.31 µM [rising, full curve, poor fit] | AC50 [2]: 20.6 µM [falling, partial curve, poor fit]

COC(=O)Nc1ccc(OCc2ccccc2)cc1
AC50 [1]: 0.116 µM [rising, full curve, poor fit]

Cc1ccc(/C=C2\SC(=S)N(CCCC(=O)Nc3cccnc3)C2=O)cc1
AC50 [1]: 0.316 µM [falling, full curve]

NNC(=O)c1oc2nc(-c3ccco3)cc(-c3ccco3)c2c1N
AC50 [1]: 0.891 µM [falling, full curve, poor fit]

CCN(C(=O)C1CCN(c2nc(-c3ccc(OC)cc3)no2)CC1)c1ccc(OC)cc1
AC50 [1]: 7.08 µM [falling, full curve]

CCOC(=O)c1ccc(-c2csc(NC(=O)CN3CCC(C)CC3)n2)cc1
AC50 [1]: 1.78 µM [rising, partial curve, poor fit]

Cc1[nH]nc2c1C(c1c[nH]c3ccccc13)C(C#N)=C(N)O2 (configuration not stated)
AC50 [1]: 35.5 µM [falling, single point] | AC50 [2]: 17.8 µM [falling, single point]

COCc1[nH]nc2c1C(C1C=CCCC1)C(C#N)=C(N)O2 (configuration not stated)
AC50 [1]: 9.2 µM [falling, partial curve]

CCOc1cc(/C=N/NC(=O)CSc2nnc(C)s2)ccc1OCc1ccccc1Cl
AC50 [1]: 4.61 µM [rising, full curve, poor fit]

CCC(C(=O)O)n1c(C(F)(F)F)nc2ccccc21 (configuration not stated)
AC50 [1]: 6.51 µM [rising, single point]

COc1cc(NC(=O)c2ccc3c(c2)OCO3)ccc1NC(=O)c1cccs1
AC50 [1]: 14.1 µM [falling, single point] | AC50 [2]: 11.2 µM [rising, partial curve, poor fit]

O=C(CCN1CCOCC1)c1ccc2c(c1)OCCO2
AC50 [1]: 13 µM [falling, partial curve, poor fit] | AC50 [2]: 16.4 µM [rising, partial curve, poor fit]

Cc1cc(C(=O)NN=Cc2ccc(-c3ccc(F)cc3)o2)c(C)o1
AC50 [1]: 1.64 µM [falling, partial curve]

Cc1ccc(S(=O)(=O)N2CCOCC2)cc1NC(=O)COC(=O)CNC(=O)c1ccc(C(C)(C)C)cc1
AC50 [1]: 8.2 µM [falling, partial curve]

CC(C)(C)c1ccc(C(=O)CC(Sc2ccc(Cl)cc2)C(=O)O)cc1 (configuration not stated)
AC50 [1]: 11.2 µM [falling, partial curve]

COc1ccc(NS(=O)(=O)c2cc(NC(=O)/C=C/c3cccs3)ccc2N2CCOCC2)cc1
AC50 [1]: 7.31 µM [rising, partial curve]

Cc1ccccc1-c1nnc(SCC(=O)NCc2ccc3c(c2)OCO3)n1C
AC50 [1]: 32.6 µM [rising, single point]

O=C(NC(=S)NNC(=O)c1ccccc1O)c1ccc(F)cc1
AC50 [1]: 11.2 µM [falling, partial curve]

CC1(C)c2ccccc2N2CC(=O)N(CC(N)=O)C21C (configuration not stated)
AC50 [1]: 14.1 µM [rising, partial curve, poor fit]

Nc1cc(C(=O)O)c(N)c2c1C(=O)c1ccccc1C2=O
AC50 [1]: 4.47 µM [falling, partial curve]

Cc1sc2c(c1C)C(=O)NC(c1ccccc1F)N2 (configuration not stated)
AC50 [1]: 2.51 µM [falling, full curve, poor fit]

CC(OC(=O)Cc1coc2ccc3ccccc3c12)C(=O)NC(N)=O (configuration not stated)
AC50 [1]: 2.82 µM [falling, single point]

c1ccc(OCc2nn3c(-c4n[nH]c5c4CCC5)nnc3s2)cc1
AC50 [1]: 11.2 µM [rising, partial curve, poor fit]

CCOC(=O)N/N=C\C=C\c1ccco1
AC50 [2]: 29.1 µM [falling, partial curve, poor fit]

O=C1/C(=C/c2ccccc2)CCC1C1CCCC1 (configuration not stated)
AC50 [1]: 9.2 µM [rising, partial curve]

CCN1C(=O)[C@H]2[C@@H](c3ccc(C)cc3)N3C(=O)N(c4cccc(F)c4)C(=O)[C@@]3(Cc3ccc(Cl)cc3)[C@H]2C1=O
AC50 [1]: 16.4 µM [falling, single point]

O=C(COC(=O)C1CCN(c2ccc(C(F)(F)F)cn2)CC1)Nc1ncc(Cl)cc1Cl
AC50 [1]: 1.46 µM [rising, partial curve]
